Record: PubChem BioAssay AID1259405 (NCATS, 2018)
The deposit covers about 50,000 reagents; below is a random part of them. About 4,000 of all reagents (8%) count as active. 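Mouse siRNA library applied to hamster cells; one well for each siRNA.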 Unmarked entries are inactive. Reagents against one gene are numbered here. No sequences are given here.

- Aim: 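Knock-downs that lift recombinant protein yield in hamster ovary cells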 (primary screen)
- System: Chinese hamster CHO-K1 ovary cells with stable secreted eGFP expression
- Knock-down reagent: single siRNA against mouse genes, 0.8 pmol siRNA per well (2 µl of 400 nM stock)
- Timing: 3 days
- Measurement: 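Percent of the per-plate non-targeting control median for intracellular GFP per well by laser scanning cytometry and for cell viability by ATP luminescence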
- Direction: GFP, % of control: higher = more GFP per well, higher productivity; viability (ATP), % of control: higher = more viable cells (more ATP)
- Call rule: 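a knock-down is called active if GFP reaches 120% or more of non-targeting control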

Get1 #1 gave GFP, % of control 59.6; viability (ATP), % of control 52.4.
After knock-down of Get1 #2 the results were GFP, % of control 82.4; viability (ATP), % of control 76.5.
Get1 #3 gave GFP, % of control 68.3; viability (ATP), % of control 96.2.
Plek2 #1 gave GFP, % of control 37.3; viability (ATP), % of control 66.6.
Plek2 #2 gave GFP, % of control 35; viability (ATP), % of control 45.4.
Silencing of Plek2 #3 resulted in: GFP, % of control 63.7; viability (ATP), % of control 59.5.
Dnajc24 #1 scored GFP, % of control 66.4; viability (ATP), % of control 73.2.
With knock-down of Dnajc24 #2 the results were GFP, % of control 108; viability (ATP), % of control 85.8.
After knock-down of Dnajc24 #3 the results were GFP, % of control 87.7; viability (ATP), % of control 104.
Knock-down of Eid1 #1 came out at: GFP, % of control 90.6; viability (ATP), % of control 64.3.
Silencing of Eid1 #2 came out at: GFP, % of control 70.8; viability (ATP), % of control 66.6.
For Eid1 #3, the entry reads GFP, % of control 94.4; viability (ATP), % of control 90.4.
Against Slc27a3 #1, the values are GFP, % of control 39; viability (ATP), % of control 80.
For Slc27a3 #2 the deposit lists GFP, % of control 58.5; viability (ATP), % of control 55.2.
Silencing of Slc27a3 #3 came out at: GFP, % of control 89.7; viability (ATP), % of control 121.
With knock-down of Ift46 #1 the results were GFP, % of control 62.9; viability (ATP), % of control 47.1.
Depletion of Ift46 #2 resulted in: GFP, % of control 72.9; viability (ATP), % of control 88.1.
With knock-down of Ift46 #3 the results were GFP, % of control 24; viability (ATP), % of control 40.2.

2 entries from above, set out differently:
{"Gene": "Ift46", "reagent": 1, "GFP, % of control": 62.9, "viability (ATP), % of control": 47.1}
{"Gene": "Ift46", "reagent": 2, "GFP, % of control": 72.9, "viability (ATP), % of control": 88.1}
